According to paper PMC11770101, “Nonenzymatic lysine D-lactylation induced by glyoxalase II substrate SLG dampens inflammatory immune responses” (Cell Research, 2025):
These are yes or no findings as the source states them, for the method shown. Binding seen in cells or lysates may run through a third protein. Some binding calls cover weakened binding; strength is not graded here.

Protein sequences, listed by entry. Tags and fused reporters are not part of them. Lines headed by an entry give the natural chain unless they say otherwise; changes in a name come on top.
UniProt Q04207: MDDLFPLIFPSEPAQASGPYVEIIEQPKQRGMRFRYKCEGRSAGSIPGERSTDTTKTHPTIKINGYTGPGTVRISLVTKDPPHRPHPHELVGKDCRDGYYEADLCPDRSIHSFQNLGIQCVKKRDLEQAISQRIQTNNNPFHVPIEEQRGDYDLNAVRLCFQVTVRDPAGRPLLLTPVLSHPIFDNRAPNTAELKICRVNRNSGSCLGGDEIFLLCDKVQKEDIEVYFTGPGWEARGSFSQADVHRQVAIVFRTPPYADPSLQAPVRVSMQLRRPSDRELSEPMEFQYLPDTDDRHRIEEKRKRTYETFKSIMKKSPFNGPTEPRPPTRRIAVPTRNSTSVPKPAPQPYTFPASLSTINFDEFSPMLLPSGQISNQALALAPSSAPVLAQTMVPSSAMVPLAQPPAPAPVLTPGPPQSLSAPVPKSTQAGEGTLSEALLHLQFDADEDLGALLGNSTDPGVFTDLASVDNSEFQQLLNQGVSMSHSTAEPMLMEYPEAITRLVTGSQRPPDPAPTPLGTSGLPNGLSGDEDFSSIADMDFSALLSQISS
UniProt Q9Z1E3: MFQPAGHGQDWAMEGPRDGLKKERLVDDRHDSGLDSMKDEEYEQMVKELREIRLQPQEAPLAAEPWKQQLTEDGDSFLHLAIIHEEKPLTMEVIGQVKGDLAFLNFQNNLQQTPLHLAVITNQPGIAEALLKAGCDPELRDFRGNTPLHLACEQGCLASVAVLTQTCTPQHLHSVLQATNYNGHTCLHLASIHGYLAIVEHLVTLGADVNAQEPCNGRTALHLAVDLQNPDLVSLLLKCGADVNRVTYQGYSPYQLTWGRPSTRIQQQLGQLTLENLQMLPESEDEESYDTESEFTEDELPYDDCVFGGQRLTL

Key:
[1] = biological target: Flag-tagged WT RelA (mouse) (UniProt Q04207); assay: co-IP; Flag-RelA (WT, K310R or lacK310) held on anti-Flag M2 magnetic beads, incubated with 1 mM SLG (150 mM NaCl, 50 mM Tris-HCl, pH 8.0; 37 °C, 3 h) or buffer alone; equal masses of RelA then incubated with macrophage lysate supernatant at 4 °C for 4 h, washed three times, immunoblot; only the target purified
[2] = biological target: Flag-tagged K310R mutant RelA (mouse) (UniProt Q04207); assay: as above

IκB (from UniProt Q9Z1E3 1-314)
binding [1]: binds | binding [2]: binds
